The other results are listed elsewhere or left out.
B1: il2ra_site1_2b5i_normal_mot_HHH_b2_04910_000000118_0001_1_19_H_._HHH_b2_04254_0001_0000100007_0000001_0_af2pred_0001_af2pred (protein)
chain: SSSSDEAQEELRELLEEADELFKQGNDEEARRVLEKAEELAEELNSESAFRSVEAMLRILSSSSS
B2: il2ra_site1_3nfp_normal_mot_HHH_b1_01417_af2_000000204_0001_1_19_H_._HHH_b1_00894_0001_0000700059_0000001_0 (protein)
chain: SSSSNAAERFTEEAERLAKELGDEELVELLRELLEEAQEKGDARVARELIKVIAKVQLKYRSSSS
B3: il2ra_site2_3nfp_normal_mot_HHH_b2_01155_000000159_0001_38_52_H_._c393a752425a4fe2e67a9f8335af7c62_0001_1_0001_0000200010_0000001_0 (protein)
chain: SKEEEAKESAKKANNPEAEEIVERVEELLREGDPEKLRELLARVTHEAYERRDPDLFYVIAILAF
B4: il2ra_site1_2b5i_sap_4_mot_HHH_b1_05282_000000062_0001_1_18_H_._HHH_b2_07833_0002_0000100001_0000001_0_0001_af2pred_dldesign_0_af2pred (protein)
chain: SSSSDDEIYDLYKKALELYRAGKKEEAEKVLEEALELAKKAGSKKIEKEIEYLLKYVKKLSSSSS
B5: il2ra_site1_2b5i_sap_10_mot_2d25717a5c0121ea846597d88a9db610_0001_1_000000082_0001_1_13_H_._HHH_b1_03920_af2_0002_0000300009_0000001_1_0001 (protein)
chain: SSSSSDLERMVEELLEEAEELREEGNPHRARSIVHLALAVARAARDPELERLVEEILERISSSSS
B6: il2ra_site2_3nfp_normal_mot_HHH_b1_01086_af2_000000264_0001_39_53_H_._HHH_b1_06634_0001_0000100007_0000001_0_1_af2pred_0001_af2pred_1 (protein)
chain: SSSSDEVERRVEELLEEAKEIDDEEEFEEVLAEASEIALENNDPELLLRIAEVLLEFLERSSSSS
B7: il2ra_site2_2erj_normal_mot_HHH_b1_03107_000000098_0001_39_52_H_._HHH_b2_04977_0001_0000500051_0000001_0 (protein)
chain: SSSSSEERREIFEEIARLSAELAEKGDPELRERLEELLEIAQELGDEAAVRYAEFALRDHSSSSS
B8: il2ra_site2_3nfp_sap_12_mot_HHH_b1_07636_000000295_0001_20_36_H_._ems_3hM_1194_af2_0001_0000400027_0000001_0_0001 (protein)
chain: SSSSDKEWALAAARTLLEVLERNNDEENFEELRRVVEEVEEHGDPRLILELYKLAREIYEKSSSS
B9: il2ra_site1_2b5i_normal_mot_HHH_b2_04910_000000118_0001_1_19_H_._HHH_b2_02918_af2_0001_0000500011_0000001_0_af2pred_0001_af2pred (protein)
chain: SSSSSDAREEAWELMQEANEAFKKGDDERARELLEQALEAAEEANNPSLAKSIRSMLELASSSSS
B10: il2ra_site1_2b5i_normal_mot_HHH_b2_04910_000000118_0001_1_19_H_._HHH_b1_02267_0001_0000600028_0000001_0 (protein)
chain: SSSDESRRARELFHEADELDRNGNPEEAEKVLEEALKLAEEGGSRQLFRMIENALEEIEAGSSSS
B11: il2ra_site1_1z92_normal_mot_8b466c8ab6a4ea9d290724e70e8647ea_0001_000000211_0001_54_65_H_._f5bcb56c74c9f00413c49eba35dae90c_0001_af2_0001_0000200029_0000001_0 (protein)
chain: DLLEELEELLEKENDPALEVLRELEELEKHGDPAAEFALEQIERKLRRGDPEAVKKLLRRFLRSL
B12: il2ra_site1_2b5i_sap_6_mot_HHH_b1_05188_af2_000000065_0001_43_56_H_._HHH_b2_02594_0001_0000300014_0000001_0_0001 (protein)
chain: SSSSDEEQEEVQRLFREASEAKRKGNPEEAERLLEEALELAEKIGDPSAHRDIRRFLELLRSSSS
B13: il2ra_site2_3nfp_normal_mot_HHH_b2_07186_000000286_0001_42_55_H_._HHH_b1_03616_0001_0000300026_0000001_0 (protein)
chain: SSSSSEEERIEELLEELEKAIENNDPEKARELIREILHLIFELKNVELYSRLEELIFRLYSSSSS
B14: il2ra_site2_3nfp_sap_20_mot_HHH_b1_02297_000000279_0001_41_58_H_._HHH_b2_01473_0001_0000500048_0000001_0_0001 (protein)
chain: SSSSDKAEEYLRIALELLEEAIEAGDKESAKSHLETAKAAAESRNDEEVKEELEKLEELLSSSSS
B15: il2ra_site1_2b5i_normal_mot_HHH_b1_02015_af2_000000003_0001_1_19_H_._HHH_b1_08577_0001_0000200008_0000001_1 (protein)
chain: SSSSSSDEELQELFHEAQRLWKNGNPEEAREVLKEAIELAREEGDEKALKDLEQLLERYSSSSSS
B16: il2ra_site2_3nfp_sap_24_mot_HHH_b2_00236_af2_000000197_0001_23_39_H_._44c1d34e7de0649e2bc3bb7207530e70_0001_0001_0000300025_0000001_0_0001 (protein)
chain: SSSSDAHEQVEETLEYLKAAALLRNDEELREVIEEAEEILKEDNDPEKALRLLYEIIDKATSSSS
B17: il2ra_site2_2erj_sap_24_mot_HHH_b2_03863_000000157_0001_22_38_H_._HHH_b1_03634_0001_0000200005_0000001_1_0001 (protein)
chain: SEEEELLKLVKKGDLRAVYKIANLIMHLKANGNPEEAEELARLLTEVLEELGTPNAAEIVKQSLR
B18: il2ra_site2_3nfp_sap_24_mot_HHH_b1_06589_000000230_0001_37_50_H_._HHH_b1_00803_0001_0000500019_0000001_0_0001 (protein)
chain: SSSSSDHEVYERVVELLKEANEIEDEEERREVLEEAEELAKELGDPVLERSVRDVAEAVNSSSSS
B19: il2ra_site2_2erj_sap_26_mot_6c2800a769814540b5b47941e710ff28_0001_000000197_0001_35_49_H_._HHH_b2_05475_0001_0000200011_0000001_0_0001_af2pred_0001_af2pred (protein)
chain: DDEEYIEMWVELAAKRLGVPSVEVETRNGTLHVTVNGTDEAARRVLLAAELAAKAAGLPFETTEE
B20: il2ra_site2_3nfp_sap_20_mot_HHH_b1_03818_000000217_0001_1_20_H_._HHH_b1_03372_af2_0001_0000600033_0000001_0_0001_af2pred_0001_1_af2pred_swapped (protein)
chain: SSSSDEIEKAVRAALRFAKQAYEEGNPELAENALEYAKAVALLNDNPELEKEVQKVEEELKSSSS
B21: il2ra_site2_3nfp_normal_mot_HHH_b2_08245_000000023_0001_41_55_H_._HHH_b2_01605_0001_0000500032_0000001_0 (protein)
chain: SSSSDEEEIEELLRKAEQAVREGDEELAKKLLQRATHVAYELNDPRLFFRVAELLFLLEHSSSSS
B22: il2ra_site2_3nfp_normal_mot_HHH_b1_05785_af2_000000002_0001_41_57_H_._HHH_b2_03463_af2_0001_0000200005_0000001_0 (protein)
chain: SSSSDRAEEYLRAALELAKEAIEQGDHEVAEKILRLVVLLAEDLGDEEVLEEAEKLLEEISSSSS
B23: il2ra_site2_2erj_sap_16_mot_38c2a25aa59ed796a93a89c387754b2e_0001_1_000000210_0001_16_32_H_._HEEHE_2940_0001_0000300006_0000001_0_0001 (protein)
chain: SSSDELRELFELANKLLHALTKGDEELFRELLEEARRLAEKLDSRTAKEILEHLERLFESTSSSS
B24: il2ra_site2_2erj_sap_13_mot_HHH_b2_06689_af2_000000039_0001_18_34_H_._HHH_b1_05500_af2_0001_0000100002_0000001_0_0001 (protein)
chain: SSSSSEELHRLYELAVELLRAVAEGDEELVREILEEVEELAERADSENVKELIENLHRLFNSSSS
B25: il2ra_site2_3nfp_sap_16_mot_HHH_b1_03316_000000041_0001_39_56_H_._702997820559c2f17efcc64b63c1c749_0001_1_0001_0000200016_0000001_0_0001_af2pred_0001_1_af2pred_ … (protein)
chain: DSEKELFKEALEEGDPALIDAVALAIALAERGKPPEEIEKSVERWLRAQGVPPEEIEEILELLRK
B26: il2ra_site1_1z92_sap_10_mot_HHH_b2_01254_af2_000000148_0001_42_56_H_._HHH_b1_02802_0001_0000600017_0000001_0_0001_af2pred_0001_af2pred_1_swapped (protein)
chain: SLQEEVRRLLEEAGVPPSDIKIFKELIEQAEEEGAPPEAILRDLIRFLEFAGDPEAAELLRRLEK
B27: il2ra_site2_2erj_normal_mot_HHH_b1_03609_af2_000000077_0001_42_55_H_._HHH_b2_00837_0001_0000600017_0000001_0 (protein)
chain: SSSSSDEEEQEVEELLEEAKRIEDPEERERVLRRASIIAFRLGNFELWALIAEVFRELSSSSSSS

Target: il2ra, P01589
Experiment: yeast display titration

Apparent Kd, inactive:
B1 no binding seen, B2 no binding seen, B3 no binding seen, B4 no binding seen, B5 no binding seen, B6 no binding seen, B7 no binding seen, B8 no binding seen, B9 no binding seen, B10 no binding seen, B11 no binding seen, B12 no binding seen, B13 no binding seen, B14 no binding seen, B15 no binding seen, B16 no binding seen, B17 no binding seen, B18 no binding seen, B19 no binding seen, B20 no binding seen, B21 no binding seen, B22 no binding seen, B23 no binding seen, B24 no binding seen, B25 no binding seen, B26 no binding seen, B27 no binding seen

— paper PMC10163288
